Our source for the binding values is US20040203128A1, “Use of PP2A phosphatase modulators in the treatment of mental disorders” (priority 2002, published 2004).

This test has as its target GST-2E11 recombinant protein (fusion between a KCNQ2-15b polypeptide comprising exons 13, 14 and 15b and GST) (human). The experiment in a line: solid phase overlay assay: 32P-labeled GST-PPP2R2C probe on blotted GST-2E11 (100 ng, 10 ng, 0.1 ng); band intensity proportional to the quantity loaded.

Results are given in words; binding and its absence hold for the method and conditions named. Some entries that bind do so weakly or less than the wild type. Tags and fused reporters may be left off the sequences shown.

B1: GST-PPP2R2C radiolabeled recombinant protein (protein, not shown: a dimerising Fc or GST)
chain: GEDTDTRKINHSFLRDHSYVTEADIISTVEFNHTGELLATGDKGGRVVIFQREPESKNAPHSQGDYDVYSTFQSHEPEFDYLKSLEIEEKINKIKWLPQQNAAHSLLSTNDKTIKLWKITERDKRPEGYNLKDEEGKLKDLSTVTSLQVPVLKPMDLMVEVSPRRIFANGHTYHINSISVNSDCETYMSADDLRINLWHLAITDRSFNIVDIKPANMEDLTEVITASEFHPHHCNLFVYSSSKGSLRLCDMPAAALCDKHSKLFEEPEDPSNRSFFSEIISSVSDVKFSHSDRYMLTRDYLTVKVWDLNMEARPIETYQVHDYLRSKLCSLYENDCIFDKFECAWNGSDSVIMTGAYNNFFRMFDRNTKRDVTLEASRESSKPRAVLKPRRVCVGGKRRRDDISVDSLDFTKKILHTAWHPAENIIAIAATNNLYIFQDKVNSDMH
modifications: 32P-phosphorylated in vitro with PKA and [32P]-γATP (site not stated)
For B1, the binding entry is recorded as “binds”.
